Common to all, as to test: EMSA
For orientation: Mobility shift assays separate free from complexed probe on a gel.

The subject of data set [1] is Sc Smc2 + Sc Smc4 + Sc Ycs4 + Sc Ycg1 + Sc Brn1. As to conditions: EMSA: 10 mM HEPES-KOH pH 7.5, 125 mM NaCl, 5 mM MgCl2, 1 mM DTT, 30 min, gels at 4 C, 0.2 uM 35-bp or 10 nM 2.1-kb DNA; recombinant protein; protein details: C-terminal StrepII x3,C-terminal His12-HA3; label: 5' 6-FAM on strand 1.
Data set [2] concerns Ct Ycs4 3-1222 (Chaetomium thermophilum). As to conditions: EMSA: 10 mM HEPES-KOH pH 7.5, 125 mM NaCl, 5 mM MgCl2, 1 mM DTT, 30 min, gels at 4 C, 0.2 uM 35-bp or 10 nM 2.1-kb DNA; recombinant protein; label: 5' 6-FAM on strand 1.
The subject of data set [3] is Ct Ycg1 24-1006 (Chaetomium thermophilum). Conditions: did not reproduce the distinct upshift; EMSA: 10 mM HEPES-KOH pH 7.5, 125 mM NaCl, 5 mM MgCl2, 1 mM DTT, 30 min, gels at 4 C, 0.2 uM 35-bp or 10 nM 2.1-kb DNA; recombinant protein; label: 5' 6-FAM on strand 1.
Data set [4] concerns Ct Brn1 336-714 (Chaetomium thermophilum). Conditions: did not reproduce the distinct upshift; EMSA: 10 mM HEPES-KOH pH 7.5, 125 mM NaCl, 5 mM MgCl2, 1 mM DTT, 30 min, gels at 4 C, 0.2 uM 35-bp or 10 nM 2.1-kb DNA; recombinant protein; protein details: N-terminal GST-HRV3C; label: 5' 6-FAM on strand 1.

Construct, isoform or probe ends are uncertain for at least one entry. For some of these results: Weaker means in comparison with the reference protein, sequence or condition of that experiment. For some of these results: At least one verdict rests on a figure or table, not on a statement of the authors.

Consider “CCTATAGTGAGTCGTTCGATATTACAATTCACTGG (double strand) [35-bp dsDNA]”, for which the binding result was “binds” in data set [1], “binds more weakly” in data set [2], “binds more weakly” in data set [3] and “binds more weakly” in data set [4].
